Assay results published in article PMC9401491, “The Novel Nucleoside Analogue ProTide NUC-7738 Overcomes Cancer Resistance Mechanisms In Vitro and in a First-In-Human Phase I Clinical Trial” (Clinical Cancer Research, 2021).

Test system: NCI-60 cells
Assay: Correlation of IC50 with HINT1 mRNA in NCI-60 cells
Format: cell-based
Details: IC50 vs HINT1 mRNA z-score

## Nc1ncnc2c1ncn2[C@@H]1O[C@H](CO)C[C@H]1O [3′-dA, 3′-deoxyadenosine, reference compound]
  correlation between expression of HINT1 and sensitivity (r): 0.19

## C[C@H](NP(=O)(OC[C@@H]1C[C@@H](O)[C@H](n2cnc3c(N)ncnc32)O1)Oc1ccccc1)C(=O)OCc1ccccc1 (stereo partly drawn) [NUC-7738, 3′-deoxyadenosine-5′-O-phenyl-(benzyloxy-L-alaninyl)-phosphate]
  correlation between expression of HINT1 and sensitivity (r): 0.28

Some results come without the dose or concentration used.
